The values that follow come from the supplement of paper PMC9135407.

Several values for one entry are separate records, joined by “and”; a condition that tells them apart may be missing. Identical values can stand only once. Counter-ions that a name gives are not always drawn. ± gives the standard deviation of the averaged measurements. The list shows a part of the results. Part of the spread comes from offsets between plates or batches.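 Culture-activated primary human stellate myofibroblasts, where regained lipid droplets signal inactivation. Value: share of Hoechst-counted cells above a per-plate Bodipy cutoff, in duplicate wells, with DMSO negative and nortriptyline positive controls on each plate. Hits: a control-normalized score above the plate's top-tenth-percentile nortriptyline wells, or one of a plate's three best wells. Final well concentrations are not given.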

For this test, the system named is primary human hepatic stellate cells (donor 1). The experiment in a line: percent Bodipy-positive cells; higher = more lipid droplet accumulation. As to conditions: 48 h.
Setting [1] is: library stock concentration: 10 mM.
The mark [2] stands for this setting: library stock concentration: 1 mM.
Where [3] appears, read: library stock concentration: 3.33 mM.
The mark [4] stands for this setting: library stock concentration: 80 uM.
Where [5] appears, read: library stock concentration: 400 uM.
The mark [6] stands for this setting: library stock concentration: 2 mM.

In the case of `C[n+]1ccccc1C=NO` [Pralidoxime mesylate], the “percent Bodipy-positive cells” value under setting [1] turned out to be 36.3 ± 1.8%.
Still for that read-out and setting: as for `COc1ccc(CCC(C)NC2CC(C)(C)NC(C)(C)C2)cc1` (stereo not given), the figure is 93.6 ± 1.9%.
In the case of `CCOC(=O)/C=C/[C@H](CC(C)C)NC(=O)[C@H](CO)NC(=O)[C@@H](NC(=O)c1cccc(O)c1C)C(C)C`, the “percent Bodipy-positive cells” value under setting [2] turned out to be 10.3 ± 5.4%.
For the compound `CC[C@@H]1/C=C(\C)C[C@H](C)C[C@H](OC)[C@H]2O[C@@](O)(C(=O)C(=O)N3CCCC[C@H]3C(=O)O[C@H](/C(C)=C/[C@@H]3CC[C@@H](O)[C@H](OC)C3)[C@H](C)[C@@H](O)CC1=O)[C@H](C)C[C@@H]2OC` [Ascomycin (FK-520)], where the note is “library stock concentration: 6.3 mM”, the “percent Bodipy-positive cells” value was 7.64 ± 0.66%.
For the compound `Cn1cc(-c2[nH]c3cc(NC(=O)[C@H](N)C4CCCCC4)cc4c3c2C=NNC4=O)cn1`, the “percent Bodipy-positive cells” value was 29.7 ± 9.7% under setting [3] and 61.2 ± 18% under setting [1].
`COc1ccc2cc(C(C#N)OC(=O)CC3OC3c3ccccc3)ccc2c1` (stereo not given): the “percent Bodipy-positive cells” value under setting [2] was determined as 11.1 ± 1%.
The same measure, in the same setting: the same measure for `CCCCCCCCCCCCCCCC(=O)NCCS(=O)(=O)O` [N-Palmitoyl Taurine]: 10.1 ± 1.9%.
As for `CC1(C)CNc2cc(NC(=O)c3cccnc3NCc3ccncc3)ccc21`, the “percent Bodipy-positive cells” value was 4.7 ± 3.2% under setting [4], 6.89 ± 3% under setting [5], 8.54 ± 1% under setting [6] and 10.4 ± 3.7% under setting [1].
In the case of `CC1(C)CNc2cc(NC(=O)c3cccnc3NCc3ccncc3)ccc21` [Motesanib Diphosphate (AMG-706)], the “percent Bodipy-positive cells” value runs as follows: under setting [3], 5.23 ± 1.8%; under setting [1], 21.8 ± 1.3%.
Take `CC1(C)CNc2cc(NC(=O)c3cccnc3NCc3ccncc3)ccc21` [Motesanib (AMG-706) (2 mM)]: the “percent Bodipy-positive cells” value under setting [6] was 9 ± 0.24%.
Take `CC1(C)CNc2cc(NC(=O)c3cccnc3NCc3ccncc3)ccc21` [Motesanib (AMG-706) (10 mM)]: the “percent Bodipy-positive cells” value under setting [1] amounted to 29.5 ± 6%.
As for `CC1(C)CNc2cc(NC(=O)c3cccnc3NCc3ccncc3)ccc21` [Motesanib (AMG-706) (0.4 mM)], under setting [5], the “percent Bodipy-positive cells” value turned out to be 15.6 ± 6.1%.
As to `COC(=O)C1=C(C)NC(C)=C(C(=O)OCC(C)C)C1c1ccccc1[N+](=O)[O-]` (stereo not given), under setting [1], the “percent Bodipy-positive cells” value was 37.2 ± 3.6%.
In the case of `COC(=O)C1=C(C)NC(C)=C(C(=O)OCC(C)C)C1c1ccccc1[N+](=O)[O-]` (stereo not given) [Nisoldipine], the “percent Bodipy-positive cells” value amounted to 9.17 ± 0.72%. Also, the “percent Bodipy-positive cells” value under setting [3] came to 8.05 ± 0.73%. Besides, the “percent Bodipy-positive cells” value (library stock concentration: 5.1 mM) was 7.84% and 17.6%. The “percent Bodipy-positive cells” value under setting [1] turned out to be 35.3 ± 7.5%.
For `Oc1cc(O)c(Cl)cn1` [Gimeracil], the “percent Bodipy-positive cells” value under setting [3] was found to be 7.56 ± 0.34% and the “percent Bodipy-positive cells” value under setting [1] worked out at 7.41 ± 3%.
Consider `CC1(C)CCC(C)(C)c2cc(C(=O)Nc3ccc(C(=O)O)cc3)ccc21`, for which the “percent Bodipy-positive cells” value reads like this: under setting [2], 11.4 ± 8%; under setting [1], 4.96 ± 0.64%.
For the compound `O=C1Cc2c([nH]c3ccc(Br)cc23)-c2ncccc2N1` [1-Azakenpaullone], the “percent Bodipy-positive cells” value came out at 61.1 ± 7.2% under setting [3] and 87.1 ± 4.9% under setting [1].
For the compound `O=C(CCC/C=C\C[C@H]1C(=O)C[C@@H](O)C1/C=C/[C@@H](O)CCc1ccccc1)NC(CO)CO` (stereo not given in full) [17-phenyl trinor Prostaglandin E2 serinol amide], the “percent Bodipy-positive cells” value under setting [2] turned out to be 23.3 ± 17%.
Regarding `Nc1ccccc1NC(=O)c1ccc(CNc2nccc(-c3cccnc3)n2)cc1` [Mocetinostat], the “percent Bodipy-positive cells” value is, setting by setting: under setting [6], 86.381 ± 0.023%; under setting [1], 90.34 ± 0.49%.
Take `CC(=O)N1CCN(C)CC1` [1-Acetyl-4-methylpiperazine hydrochloride]: the “percent Bodipy-positive cells” value under setting [1] is 4.81 ± 0.68%.
Take `Cc1cc(-c2ccc(CC(=O)Nc3ccc(-c4cccnc4)cc3)cc2)ccn1`: the “percent Bodipy-positive cells” value runs as follows: under setting [3], 28.1 ± 12%; under setting [1], 52.7 ± 4.5%.
As to `CCCCCCC[C@H](O)/C=C/[C@@H]1[C@@H](C/C=C\CCCC(=O)O)[C@@H](O)C[C@H]1O` [20-ethyl Prostaglandin F2.alpha.], under setting [2], the “percent Bodipy-positive cells” value was determined as 15.7 ± 0.57%.
For `COC(=O)[C@H]1[C@H]2C[C@@H]3c4[nH]c5cc(OC)ccc5c4CCN3C[C@H]2C[C@@H](OC(=O)/C=C/c2cc(OC)c(OC)c(OC)c2)[C@@H]1OC` [Rescinnamin], the “percent Bodipy-positive cells” value was 65.7 ± 13%.
With `COCCOc1ccc2c(c1)ncn2-c1ccc2cccc(N3CCC(N)CC3)c2n1`, the “percent Bodipy-positive cells” value came out at 5.87 ± 2.3% under setting [4]; 25.1 ± 5.2% under setting [5]; 44.7 ± 4.5% under setting [6]; 90.5 ± 3.8% under setting [3]; 99.61 ± 0.56% under setting [1].
For the compound `Cc1cc(Nc2cc(N3CCN(C)CC3)nc(/C=C/c3ccccc3)n2)n[nH]1`, the “percent Bodipy-positive cells” value under setting [1] is 100%.
On to `CCCC(=O)[O-].[Na+]` [Sodium Butyrate], for which the “percent Bodipy-positive cells” value under setting [2] was found to be 11.3 ± 2.5%.
On to `COC(=O)C1=C(C)NC(C)=C(C(=O)OCCN(C)Cc2ccccc2)C1c1cccc([N+](=O)[O-])c1` (stereo not given) [Cardene], for which the “percent Bodipy-positive cells” value under setting [1] is 70.5 ± 7.4%.
Turning to `COC(=O)C1=C(C)NC(C)=C(C(=O)OCCN(C)Cc2ccccc2)C1c1cccc([N+](=O)[O-])c1` (stereo not given) [Nicardipine HCl], the “percent Bodipy-positive cells” value under setting [3] is 16.8 ± 8.5% and the “percent Bodipy-positive cells” value under setting [1] is 71.4 ± 1.3%.
With `COC(=O)C1=C(C)NC(C)=C(C(=O)OCCN(C)Cc2ccccc2)C1c1cccc([N+](=O)[O-])c1` (stereo not given) [Nicardipine?HCl], where the note is “library stock concentration: 9.7 mM”, the “percent Bodipy-positive cells” value is 59.3 ± 5%.
Turning to `COC(=O)C1=C(C)NC(C)=C(C(=O)OCCN(C)Cc2ccccc2)C1c1cccc([N+](=O)[O-])c1` (stereo not given) [Nicardipine hydrochloride], the “percent Bodipy-positive cells” value is 55.6 ± 18%.
Take `Cc1cncc2cccc(S(=O)(=O)N3CCCN(C(=O)CN)C[C@@H]3C)c12` [Rho Kinase Inhibitor IV]: the “percent Bodipy-positive cells” value under setting [3] was determined as 6.41 ± 0.2%.
As to `Cc1nc(C#Cc2ccnc(Cl)c2)c(C)n1-c1ccc(OC(F)(F)F)cc1`, the “percent Bodipy-positive cells” value was determined as 7.21 ± 5.5% under setting [3] and 19.6 ± 2.9% under setting [1].
In the case of `Clc1ccc2c(c1)CCc1cccnc1C2=C1CCNCC1`, under setting [1], the “percent Bodipy-positive cells” value amounted to 91.7 ± 5.8%.
As for `OC[C@H]1O[C@@H](c2ccc(Cl)c(Cc3ccc(O[C@H]4CCOC4)cc3)c2)[C@H](O)[C@@H](O)[C@@H]1O`, the “percent Bodipy-positive cells” value under setting [3] is 25.8 ± 9.9% and the “percent Bodipy-positive cells” value under setting [1] came out at 37.2 ± 1.5%.
As to `O=C1C(O)=C([C@H]2CC[C@H](c3ccc(Cl)cc3)CC2)C(=O)c2ccccc21` [Atovaquone], the “percent Bodipy-positive cells” value was 32.7 ± 2.2%. The “percent Bodipy-positive cells” value under setting [1] came out at 37.1 ± 6.7%.
For `CC(C)NCC(O)c1ccc(O)c(O)c1` (single isomer, unassigned; (-)) [(-)-Isoproterenol hydrochloride], the “percent Bodipy-positive cells” value came out at 12.5 ± 4.9%. For the same compound, under setting [1], the “percent Bodipy-positive cells” value worked out at 43.8 ± 12%.
With `NCCNS(=O)(=O)c1cccc2c(Cl)cccc12` [A3 hydrochloride], under setting [1], the “percent Bodipy-positive cells” value came out at 18.2 ± 1.9%.
For the compound `Cc1ccccc1C(OCCN(C)C)c1ccccc1` (stereo not given) [Orphenadrine hydrochloride], the “percent Bodipy-positive cells” value is 56.3 ± 5.5%. Besides, under setting [1], the “percent Bodipy-positive cells” value stood at 72.83 ± 0.37%.
As for `Cc1ccccc1C(OCCN(C)C)c1ccccc1` (stereo not given) [Orphenadrine Citrate], the “percent Bodipy-positive cells” value by setting is: under setting [3], 27.51 ± 0.26%; under setting [1], 56 ± 1.3%.
For `Cc1ccccc1C(OCCN(C)C)c1ccccc1` (stereo not given) [Norflex], the “percent Bodipy-positive cells” value under setting [1] was 79 ± 3%.
Still for that read-out and setting: the same measure for `Cc1ccccc1C(OCCN(C)C)c1ccccc1` (stereo not given) [Disipal]: 79.9 ± 1.8%; for `Cc1ccccc1C(OCCN(C)C)c1ccccc1` (stereo not given) [Orphenadrine citrate]: 54 ± 7.9%.
As for `Cc1ncc2ccccc2c1C#N` [4-Cyano-3-methylisoquinoline], under setting [3], the “percent Bodipy-positive cells” value worked out at 10.3 ± 0.28%.
For `CNCc1cc(-c2ccccc2F)n(S(=O)(=O)c2cccnc2)c1`, the “percent Bodipy-positive cells” value under setting [3] came out at 49.8 ± 2.8% and the “percent Bodipy-positive cells” value under setting [1] was found to be 75.8 ± 11%.
Consider `COc1cc(C(=O)OCCC[NH+]2CCC[NH+](CCCOC(=O)c3cc(OC)c(OC)c(OC)c3)CC2)cc(OC)c1OC.[Cl-].[Cl-]` [Dilazep hydrochloride], for which the “percent Bodipy-positive cells” value under setting [1] turned out to be 95.36 ± 0.28%.
